Test results: patent US20240344077A1
Changes are numbered by the printed parent chain. Names may count otherwise. These are yes or no findings as the source states them, for the method shown. Some results given as binding are weak or reduced against the parent protein; the word gives no strength. Values belong to the binder of their own block, whether it stands above or below them.

Tests used:
[1] = biological target: Chimera D, intracellular part (JM zones 2 and 3 of CERK6, JM zone 4 of NFR1, kinase domain of CERK6) (Lotus japonicus); assay: native PAGE of purified intracellular part; self-association inferred from ladder pattern (to some extent the same pattern as CERK6)
[2] = biological target: Chimera B, intracellular part (JM of CERK6, kinase domain of NFR1) (Lotus japonicus); assay: native PAGE of purified intracellular part; self-association inferred from ladder pattern (same pattern as CERK6)
[3] = biological target: Chimera A, intracellular part (JM of NFR1, kinase domain of CERK6) (Lotus japonicus); assay: native PAGE of purified intracellular part; self-association inferred from ladder pattern (same pattern as NFR1)
[4] = biological target: Chimera C, intracellular part (JM zones 2 and 3 of NFR1, JM zone 4 and kinase domain of CERK6) (Lotus japonicus); assay: as above
[5] = biological target: Lotus japonicus NFR1 intracellular domain (residues 263-623) (Lotus japonicus); assay: native PAGE of purified intracellular domain; self-association inferred from ladder pattern
[6] = biological target: Lotus japonicus NFR1 (residues 263-623) D462N (Lotus japonicus); assay: native PAGE of purified intracellular domain; self-association inferred from ladder pattern (lane named only in the legend of FIG. 15F)

- binding [1]: binds
B1: Chimera D, intracellular part (JM zones 2 and 3 of CERK6, JM zone 4 of NFR1, kinase domain of CERK6) (receptor)
chain: FRKKRIQKEELLSQETRAIFPQDGKDENPRSTVNETPGPGGPAAMAGIMVAKSMEFSYQELAKATNNFSLANKIGQGGFGSVYYAELRGERAAIKKMDMQASKEFLAELKVLTRVHHLNLVRLIGYSIEGSLFLVYEFIENGNLSQHLRGSGRDPLPWATRVQIALDSARGLEYIHEHTVPVYIHRDIKSANILIDKNYRGKVADFGLTKLTEVGSSSLPTGRLVGTFGYMPPEYAQYGDVSPKVDVYAFGVVLYELISAKDAIVKTSESITDSKGLVALFEGVLSQPDPTEDLRKLVDQRLGDNYPVDSVRKMAQLAKACTQDNPQLRPSMRSIVVALMTLSSTTDDWDVGSFYENQNLVNLMSGR

- binding [2]: binds
B2: Chimera B, intracellular part (JM of CERK6, kinase domain of NFR1) (receptor)
chain: FRKKRIQKEELLSQETRAIFPQDGKDENPRSTVNETPGPGGPAAMAGITVDKSVEFSYDELATATDNFSLDNKIGQGGFGAVYYAELRGKKTAIKKMDVQASTEFLCELKVLTHVHHLNLVRLIGYCVEGSLFLVYEHIDNGNLGQYLHGSGKEPLPWSSRVQIALDAARGLEYIHEHTVPVYIHRDVKSANILIDKNLRGKVADFGLTKLIEVGNSTLQTRLVGTFGYMPPEYAQYGDISPKIDVYAFGVVLFELISAKNAVLKTGELVAESKGLVALFEEALNKSDPCDALRKLVDPRLGENYPIDSVLKIAQLGRACTRDNPLLRPSMRSLVVALMTLSSLTEDCDDESSYESQTLINLLSVR

- binding [3]: binds
B3: Chimera A, intracellular part (JM of NFR1, kinase domain of CERK6) (receptor)
chain: QKKEEEKAKLPTDISMALSTQDGNASSSAEYETSGSSGPGTASATGLTSIMVAKSMEFSYQELAKATNNFSLANKIGQGGFGSVYYAELRGERAAIKKMDMQASKEFLAELKVLTRVHHLNLVRLIGYSIEGSLFLVYEFIENGNLSQHLRGSGRDPLPWATRVQIALDSARGLEYIHEHTVPVYIHRDIKSANILIDKNYRGKVADFGLTKLTEVGSSSLPTGRLVGTFGYMPPEYAQYGDVSPKVDVYAFGVVLYELISAKDAIVKTSESITDSKGLVALFEGVLSQPDPTEDLRKLVDQRLGDNYPVDSVRKMAQLAKACTQDNPQLRPSMRSIVVALMTLSSTTDDWDVGSFYENQNLVNLMSGR

- binding [4]: binds
B4: Chimera C, intracellular part (JM zones 2 and 3 of NFR1, JM zone 4 and kinase domain of CERK6) (receptor)
chain: B3 chain with M51T, A53D, M56V, Q61D, K65T, N68D

- binding [5]: binds
B5: Lotus japonicus NFR1 intracellular domain (residues 263-623) (receptor)
chain: AKLPTDISMALSTQDGNASSSAEYETSGSSGPGTASATGLTSIMVAKSMEFSYQELAKATNNFSLDNKIGQGGFGAVYYAELRGKKTAIKKMDVQASTEFLCELKVLTHVHHLNLVRLIGYCVEGSLFLVYEHIDNGNLGQYLHGSGKEPLPWSSRVQIALDAARGLEYIHEHTVPVYIHRDVKSANILIDKNLRGKVADFGLTKLIEVGNSTLQTRLVGTFGYMPPEYAQYGDISPKIDVYAFGVVLFELISAKNAVLKTGELVAESKGLVALFEEALNKSDPCDALRKLVDPRLGENYPIDSVLKIAQLGRACTRDNPLLRPSMRSLVVALMTLSSLTEDCDDESSYESQTLINLLSVR

- binding [6]: binds
B6: Lotus japonicus NFR1 (residues 263-623) D462N (receptor)
chain: B5 chain with D200N
